The list shows only some results of the screen, not a fair sample: it is rich in T/C values a quarter to a half above the control, in often repeated tests (any T/C) and in doses without a T/C. Further doses and runs are listed elsewhere. T/C gives the treated animals as a percentage of the vehicle group. Some doses have a count of surviving animals in place of a T/C: the source files T/C as zero there, which appears to mark a toxic dose or a test without result, not a measured value. Some doses without a T/C left all or most animals alive at the check, yet need not have been tolerated: survival well below the control is almost never listed, so the zero probably covers shortened survival too. Survivors were counted at the toxicity check, usually on the fifth day, unless a day is given; later deaths do not show. Schedules are NCI's codes, read here as Q, the interval in days (D) or hours (H), X, the number of doses. Where survival is the endpoint, this PubChem deposit counts one and a half times the control or more as active, and values a quarter to a half above the control carry no call in these data; other NCI protocols may use other cut-offs. Some doses were run more than once; the values are given in rising order.
System: CD2F1 mice, L1210 leukemia ip, survival T/C
Experiment: NCI In Vivo Anticancer Drug Screen. Data for tumor model L1210 Leukemia (intraperitoneal) in CD2F1 (CDF1) mice
Details: T/C endpoint: mean survival time, higher T/C = longer survival
How it was run: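 Transplantable tumor in mice; compound-treated vs vehicle-treated groups. Read-out = treated/control ratio of the measured endpoint.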

[1] = dose: 400.0 mg/kg/injection, schedule: Q01DX009 (ip), vehicle: saline
[2] = dose: 400.0 mg/kg/injection, schedule: Q01DX009 (ip), vehicle: saline with Tween-80

In the case of COc1cccc2c1C(=O)c1c(O)c3c(c(O)c1C2=O)C[C@@](O)(C(=O)CO)C[C@@H]3OC1CC(N)C(OC)C(C)O1 (stereo partly drawn), the T/C (dose: 0.32 mg/kg/injection, schedule: Q01DX009 (ip), vehicle: saline) is reported as 136 % of control, the T/C (dose: 0.39 mg/kg/injection, schedule: Q01DX009 (ip), vehicle: saline) is reported as 135 % of control and the T/C (dose: 1.3 mg/kg/injection, schedule: Q01DX001 (ip), vehicle: saline) is reported as 138 % of control. For the same molecule, the T/C (dose: 1.5 mg/kg/injection, schedule: Q01DX009 (ip), vehicle: saline) was 134 % of control, the T/C (dose: 2.16 mg/kg/injection, schedule: Q01DX001 (ip), vehicle: saline) was 148 % of control and the survivor count (dose: 2.5 mg/kg/injection, schedule: Q01DX009 (ip), vehicle: saline) was 6 of 6.
For Cc1ccc(S(=O)(=O)N=N/C=C2/C=CC=CN2O)cc1, the T/C (dose: 80.0 mg/kg/injection, schedule: Q01DX009 (ip), vehicle: Klucel (hydroxypropylcellulose) (HPC)) was 125 % of control and the T/C (dose: 175.0 mg/kg/injection, schedule: Q01DX009 (ip), vehicle: Klucel (hydroxypropylcellulose) (HPC)) was 126 % of control.
CS(=O)(=O)OCCN(CCOS(C)(=O)=O)c1cccc(Cl)c1 was tested, and the T/C (dose: 16.0 mg/kg/injection, schedule: Q01DX010 (ip), vehicle: saline) was 148 % of control, the T/C (dose: 16.0 mg/kg/injection, schedule: Q01DX015 (ip), vehicle: saline) was 128 % of control and the survivor count (dose: 32.0 mg/kg/injection, schedule: Q01DX015 (ip), vehicle: saline) was 6 of 6.
CSc1nc(SC)c2c3c(N)ncnc3n(C3OC(CO)C(O)C3O)c2n1 (stereo not drawn) was tested, and the T/C (dose: 50.0 mg/kg/injection, schedule: Q01DX005 (ip), vehicle: other) was 125 % of control, the T/C (dose: 100.0 mg/kg/injection, schedule: Q01DX005 (ip), vehicle: other) was 125 % of control and the T/C (dose: 200.0 mg/kg/injection, schedule: Q01DX005 (ip), vehicle: other) was 130 and 145 % of control. The T/C (dose: 300.0 mg/kg/injection, schedule: Q01DX005 (ip), vehicle: other) was 136 % of control.
For CCCCCCCCCN=C(N)CSSCC(N)=NCCCCCCCCC, the survivor count (dose: 50.0 mg/kg/injection, schedule: Q01DX001 (ip), vehicle: Klucel (hydroxypropylcellulose) (HPC)) was 0 of 3.
Cc1ccc([As+](c2ccccc2)(c2ccccc2)c2ccccc2)cc1 was tested, and the survivor count (dose: 75.0 mg/kg/injection, schedule: Q01DX001 (ip), vehicle: saline) was 0 of 6, the survivor count (dose: 150.0 mg/kg/injection, schedule: Q01DX001 (ip), vehicle: saline) was 0 of 6 and the survivor count (dose: 300.0 mg/kg/injection, schedule: Q01DX001 (ip), vehicle: saline) was 0 of 6.
COC1CC2C[CH]([Hg][Cl])C1C2 (stereo not drawn) was tested, and the survivor count (dose: 12.5 mg/kg/injection, schedule: Q01DX009 (ip), vehicle: saline with Tween-80) was 0 of 3, the survivor count (dose: 25.0 mg/kg/injection, schedule: Q01DX009 (ip), vehicle: saline with Tween-80) was 0 of 3 and the survivor count (dose: 50.0 mg/kg/injection, schedule: Q01DX009 (ip), vehicle: saline with Tween-80) was 0 of 3.
For Nc1nc(-c2ccccc2)c(CCCNc2ccc(C(=O)NC(CCC(=O)O)C(=O)O)cc2)c(=O)[nH]1 (stereo not drawn), the survivor count [1] was 6 of 6.
With COc1cc2c(cc1OC)C1CC(O)C3CCCCC3N1CC2 (stereo not drawn) the survivor count (dose: 400.0 mg/kg/injection, schedule: Q04DX003 (ip), vehicle: saline with Tween-80) was 0 of 6.
For CCOc1c(C#N)c2c(N)ncnc2n1C1OC(CO)C(O)C1O (stereo not drawn), the survivor count (dose: 200.0 mg/kg/injection, schedule: Q01DX009 (ip), vehicle: distilled water + Tween-80) was 2 of 5.
With CC1(COCCOCC2(C)CO2)CO1 (stereo not drawn) the T/C [1] was 134 % of control.
For CCCCNC(=S)N(CCCC)CCCC, the survivor count [2] was 1 of 6.
c1ccc(C2OCC3(CO2)COC(c2ccccc2)OC3)cc1 (stereo not drawn) was tested, and the survivor count [2] was 6 of 6.
